These are yes or no findings as the source states them, for the method shown. Binding seen in cells or lysates may run through a third protein. Some binding calls cover weakened binding; strength is not graded here. For part of these data: Sequences can lack the tags named with a protein.
Legend:
[1] = molecular target: T1, Wnt1.Myc5 (mouse) (UniProt P04426); assay: co-immunoprecipitation, anti-FLAG pull-down of 1 µg hRYKWD.Fc from lysate of Wnt-transfected HEK293T cells, anti-Myc blot
T1 sequence (looked up): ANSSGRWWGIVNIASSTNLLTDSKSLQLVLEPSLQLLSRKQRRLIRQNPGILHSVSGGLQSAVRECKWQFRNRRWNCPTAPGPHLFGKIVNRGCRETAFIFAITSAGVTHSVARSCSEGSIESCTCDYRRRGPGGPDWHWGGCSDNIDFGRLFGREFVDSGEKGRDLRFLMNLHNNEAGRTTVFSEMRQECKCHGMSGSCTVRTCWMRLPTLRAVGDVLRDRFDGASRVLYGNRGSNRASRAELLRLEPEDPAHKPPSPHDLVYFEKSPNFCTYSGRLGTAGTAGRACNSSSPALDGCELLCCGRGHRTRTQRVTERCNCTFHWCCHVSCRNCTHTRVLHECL

By UniProt entry, the sequences of proteins in these tests, tags left out. Residues count along the entry.
UniProt P27467, residues 19-352: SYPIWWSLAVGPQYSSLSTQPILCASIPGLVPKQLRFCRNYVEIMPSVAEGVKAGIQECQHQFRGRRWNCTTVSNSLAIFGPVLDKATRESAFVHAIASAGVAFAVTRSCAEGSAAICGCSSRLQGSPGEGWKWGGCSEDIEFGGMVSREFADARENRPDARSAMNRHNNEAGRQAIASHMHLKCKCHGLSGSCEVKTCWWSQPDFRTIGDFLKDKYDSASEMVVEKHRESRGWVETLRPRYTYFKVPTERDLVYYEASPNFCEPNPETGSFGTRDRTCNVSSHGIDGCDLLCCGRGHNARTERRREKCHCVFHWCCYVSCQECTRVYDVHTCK
UniProt P34925, residues 66-194: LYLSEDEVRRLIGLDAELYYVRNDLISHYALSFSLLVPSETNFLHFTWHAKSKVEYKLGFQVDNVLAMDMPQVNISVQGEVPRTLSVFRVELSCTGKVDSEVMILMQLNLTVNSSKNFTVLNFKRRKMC

[2] = molecular target: Wnt3a.Myc5 (mouse) (UniProt P27467); assay: as above
[3] = molecular target: T2, Wnt5a.Myc5 (mouse) (UniProt P22725); assay: as above
T2 sequence (looked up): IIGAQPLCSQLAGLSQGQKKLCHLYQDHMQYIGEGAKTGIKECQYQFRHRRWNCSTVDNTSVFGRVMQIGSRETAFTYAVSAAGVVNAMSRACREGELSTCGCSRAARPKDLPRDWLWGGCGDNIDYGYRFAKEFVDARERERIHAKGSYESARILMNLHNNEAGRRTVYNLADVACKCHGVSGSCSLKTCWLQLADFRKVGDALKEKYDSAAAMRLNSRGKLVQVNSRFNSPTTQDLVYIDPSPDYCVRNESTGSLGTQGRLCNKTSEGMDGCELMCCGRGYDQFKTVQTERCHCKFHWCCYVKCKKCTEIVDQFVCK

[4] = molecular target: T1, Wnt1.Myc5 (mouse); assay: co-immunoprecipitation: anti-FLAG IP of 1 µg hRYKWD.Fc with 200 µg lysate of transfected HEK293T cells, immunoblot anti-Myc
[5] = molecular target: Wnt3a.Myc5 (mouse) (UniProt P27467); assay: as above
[6] = molecular target: T2, Wnt5a.Myc5 (mouse); assay: as above

binding [1]: binds
binding [2]: binds
binding [3]: binds
binding [4]: binds
binding [5]: binds
binding [6]: binds
Substance: hRYKWD.Fc (from UniProt P34925 66-194) (Fc fusion)
